Reference: PubChem BioAssay AID652243 (Drosophila RNAi Screening Center, 2013)
Assay: 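Fly genes required for human androgen receptor driven transcription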 (primary screen). System: Drosophila S2R+ cells. Reagents: long dsRNA against Drosophila genes. Duration: 72 h (48 h, then 24 h hormone). Treatment: synthetic androgen R1881 at 10 nM for 24 h. Read-out: 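Firefly light from an androgen-responsive reporter and Renilla control light per well, raw and unnormalised, for each of two replicates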. Reading the numbers: firefly reporter light: higher = more light from androgen-responsive reporter; Renilla control light: higher = more constitutive control signal (cell number, transfection). Call rule: 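Hit when the log firefly-to-Renilla ratio dropped or increased by a fixed fold versus the mean of GFP or LacZ controls across duplicate plates; lowering cut given as 1.5 and as 3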. Meaning of the calls: active = hit: reporter lowered or raised; inactive = no hit.
The deposit covers about 24,000 reagents; shown is a random part of those with a known target gene and a result. Over the whole deposit, 246 (1%) got an active call. 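Plates not normalised; calls are printed but the firefly/Renilla ratio behind them is not deposited; fold cut for lowering reported inconsistently.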 Raw values are not corrected between plates. A number with no mark means an inactive call. Names joined by + are all predicted targets of the reagent. The record does not give: the amount of reagent.

The opening 3 records, ahead of the listing:
| gene | amplicon | firefly reporter light, replicate 1 | firefly reporter light, replicate 2 | Renilla control light, replicate 1 | Renilla control light, replicate 2 |
| --- | --- | --- | --- | --- | --- |
| lncRNA:CR32690 | DRSC22219 | 6.21e5 | 5.27e5 | 1.97e6 | 1.66e6 |
| lncRNA:CR32690 | DRSC27561 | 3.15e5 | 2.77e5 | 7.27e5 | 9.08e5 |
| CG7943 | DRSC16351 | 1.21e5 | 77703 | 8.17e5 | 5.94e5 |

Results, from the first entry:
| gene | amplicon | firefly reporter light, replicate 1 | firefly reporter light, replicate 2 | Renilla control light, replicate 1 | Renilla control light, replicate 2 |
| --- | --- | --- | --- | --- | --- |
| lncRNA:CR32690 | DRSC22219 | 6.21e5 | 5.27e5 | 1.97e6 | 1.66e6 |
| lncRNA:CR32690 | DRSC27561 | 3.15e5 | 2.77e5 | 7.27e5 | 9.08e5 |
| CG7943 | DRSC16351 | 1.21e5 | 77703 | 8.17e5 | 5.94e5 |
| Mtk | DRSC07475 | 1.11e5 | 1.13e5 | 1.93e6 | 1.93e6 |
| Mtk | DRSC29753 | 3.58e5 | 3.35e5 | 1.21e6 | 1.35e6 |
| Chchd3 | DRSC16981 | 1.36e5 | 1.31e5 | 1.13e6 | 1.72e6 |
| Chchd3 | DRSC26451 | 2.76e5 | 1.94e5 | 6.91e5 | 3.91e5 |
| GstE2 | DRSC06672 | 46070 | 61146 | 6.77e5 | 6.77e5 |
| GstE2 | DRSC29733 | 4.20e5 | 3.72e5 | 1.13e6 | 1.18e6 |
| CG33257 | DRSC09917 | 2.09e5 | 1.91e5 | 2.06e6 | 1.61e6 |
| CG10914 | DRSC06010 | 65421 | 81506 | 1.47e6 | 1.47e6 |
| skd | DRSC11898 | 1.60e5 | 1.27e5 | 1.58e6 | 1.91e6 |
| CG18537 | DRSC06764 | 1.06e5 | 2.33e5 | 1.69e6 | 1.69e6 |
| CG18537 | DRSC29847 | 1.11e6 | 9.03e5 | 1.65e6 | 1.71e6 |
| CG11357 | DRSC08183 | 1.05e5 | 97089 | 1.35e6 | 1.39e6 |
| sano | DRSC06165 | 1.03e6 | 9.96e5 | 1.45e6 | 1.33e6 |
| sano | DRSC26307 | 2.41e5 | 2.43e5 | 6.77e5 | 5.93e5 |
| CG13675 | DRSC23124 | 2.26e5 | 3.72e5 | 1.54e6 | 1.91e6 |
| Fas1 | DRSC16669 | 1.68e5 | 1.37e5 | 2.26e6 | 1.76e6 |
| JYalpha (retired record) + JYalpha | DRSC21700 | 5.10e5 | 5.92e5 | 2.67e6 | 2.79e6 |
| CG13033 | DRSC09913 | 2.19e5 | 1.37e5 | 2.17e6 | 1.59e6 |
| CG13033 | DRSC25379 | 9.18e5 | 9.17e5 | 9.27e5 | 1.15e6 |
| CG13137 | DRSC02234 | 2.29e5 | 2.24e5 | 7.94e5 | 7.54e5 |
| Pdcd4 | DRSC19360 | 5.37e5 | 4.44e5 | 3.49e6 | 3.82e6 |
